Results: patent US20070275314A1, “Diphenyl amine derivative, production method therefor and electrophotographic photoconductor” (priority 2006, published 2007)

Tests used:
[1] = Evaluation of the photoconductor external appearance (crystallization on the photoconductor layer surface); design: key to appearance (photoconductor external appearance): ◯ (good): Crystallization was not observed.; Δ (fair): Crystallization was slightly observed.; X (bad): Crystallization was observed; details: for appearance (photoconductor external appearance): hole transfer agent in monolayer photoconductor
[2] = Black dot generation evaluation of monolayer type photoconductor mounted on a printer; details: electron transfer agent (13-4), binding resin (PC-Z); for Black dots (number): after 5,000 sheets at 40° C., 90 Rf and leaving 6 hours, per blank A4 paper
[3] = X type non metal phthalocyanine, electron transfer agent (13-1)
[4] = X type non metal phthalocyanine, electron transfer agent (13-3)
[5] = Y type titanyl phthalocyanine, electron transfer agent (13-3)
[6] = X type non metal phthalocyanine

| SMILES | appearance (photoconductor external appearance) [1, 3] | appearance (photoconductor external appearance) [1, 4] | appearance (photoconductor external appearance) [1, 5] | Black dots (number) [2, 6] | Black dots (number) ([2]; Y type titanyl phthalocyanine) | Evaluation (black dot generation) [2, 6] | Evaluation (black dot generation) ([2]; Y type titanyl phthalocyanine) | Crystallization after applying the application liquid onto the conductive base member and drying ([1]; photoconductors made as in Examples 1 to 3 (Comparative Examples 4 to 6)) |
| --- | --- | --- | --- | --- | --- | --- | --- | --- |
| C(=C\c1ccc(N(c2ccc(/C=C/c3ccccc3)cc2)c2cccc3c2CCCC3)cc1)/c1ccccc1 [compound (1-1)] | ◯(good) | ◯(good) | ◯(good) | 38 number | 42 number | – | – | – |
| Cc1ccc(/C=C/c2ccc(N(c3ccc(/C=C/c4ccc(C)cc4)cc3)c3cccc4c3CCCC4)cc2)cc1 [compound (1-2)] | ◯(good) | ◯(good) | ◯(good) | 43 number | 44 number | – | – | – |
| C(/C=C/c1ccc(N(c2ccc(/C=C/C=C/c3ccccc3)cc2)c2cccc3c2CCCC3)cc1)=C\c1ccccc1 [compound (1-3)] | ◯(good) | ◯(good) | ◯(good) | – | – | – | – | – |
| C(=Cc1cccc(N(c2ccc(/C=C/C=C/c3ccccc3)cc2)c2cccc3c2CCCC3)c1)/C=C/c1ccccc1 [compound (1-4)] | ◯(good) | ◯(good) | ◯(good) | 44 number | 46 number | – | – | – |
| C(/C=C/c1ccc(N(c2ccc(/C=C/C=C/c3ccccc3)cc2)c2ccc3c(c2)CCCC3)cc1)=C\c1ccccc1 [compound (1-5)] | ◯(good) | ◯(good) | ◯(good) | 40 number | 42 number | – | – | – |
| C(/C=C/c1ccc(N(c2ccc(/C=C/c3ccccc3)cc2)c2cccc3c2CCCC3)cc1)=C\c1ccccc1 [compound (1-6)] | ◯(good) | ◯(good) | ◯(good) | 42 number | 42 number | – | – | – |
| C(/C=C/c1ccc(N(c2ccc(/C=C/c3ccccc3)cc2)c2ccc3c(c2)CCCC3)cc1)=C\c1ccccc1 [compound (1-7)] | ◯(good) | ◯(good) | ◯(good) | 43 number | 45 number | – | – | – |
| Cc1ccc(/C=C/c2ccc(N(c3ccc(/C=C/C=C/c4ccccc4)cc3)c3cccc4c3CCCC4)cc2)cc1 [compound (1-8)] | ◯(good) | ◯(good) | ◯(good) | 43 number | 45 number | – | – | – |
| C(/C=C/c1ccc(N(c2ccc(/C=C/C=C/c3ccccc3)cc2)c2cccc3c2CCC3)cc1)=C\c1ccccc1 [compound (1-9)] | ◯(good) | ◯(good) | ◯(good) | 40 number | 40 number | – | – | – |
| Cc1ccc(/C=C/c2ccc(N(c3ccc(/C=C/C=C/c4ccccc4)cc3)c3cccc4c3CCC4)cc2)cc1 [compound (1-10)] | ◯(good) | ◯(good) | ◯(good) | – | – | – | – | – |
| C(/C=C/c1ccc(N(c2ccc(/C=C/C=C/c3ccccc3)cc2)c2ccc3c(c2)CCC3)cc1)=C\c1ccccc1 [compound (1-11)] | ◯(good) | ◯(good) | – | – | – | – | – | – |
| Cc1ccc(/C=C/c2ccc(N(c3ccc(/C=C/C=C/c4ccccc4)cc3)c3ccc4c(c3)CCC4)cc2)cc1 [compound (1-12)] | – | – | – | 43 number | 45 number | ◯(good) | ◯(good) | – |
| Cc1ccc(N(c2ccc(/C=C/C=C/c3ccccc3)cc2)c2ccc(/C=C/C=C/c3ccccc3)cc2)c(C)c1 [compound (6-1), reference compound] | – | – | – | 72 number | 75 number | X(bad) (X (bad): Above 60 black dots generated per A4 paper sheet.) | X(bad) (X (bad): Above 60 black dots generated per A4 paper sheet.) | – |
| Cc1cccc(N(c2ccc(/C=C/C=C/c3ccccc3)cc2)c2ccc(/C=C/C=C/c3ccccc3)cc2)c1C [compound (6-2), reference compound] | – | – | – | – | – | X(bad) (X (bad): Above 60 black dots generated per A4 paper sheet.) | X(bad) (X (bad): Above 60 black dots generated per A4 paper sheet.) | crystallized |
